Measured values taken from patent EP3085709A1 (Genor Biopharma Co., Ltd, dated 2016).
No constants are given. Whether binding was seen depends on the method and setting. Some entries that bind do so weakly or less than the wild type. Where a sequence is shown, tags or fusion partners need not be part of it.

Chains of the proteins cited; added tags and fusions are not shown. Lines headed by an entry give the natural chain unless they say otherwise; changes in a name come on top.
UniProt O14788: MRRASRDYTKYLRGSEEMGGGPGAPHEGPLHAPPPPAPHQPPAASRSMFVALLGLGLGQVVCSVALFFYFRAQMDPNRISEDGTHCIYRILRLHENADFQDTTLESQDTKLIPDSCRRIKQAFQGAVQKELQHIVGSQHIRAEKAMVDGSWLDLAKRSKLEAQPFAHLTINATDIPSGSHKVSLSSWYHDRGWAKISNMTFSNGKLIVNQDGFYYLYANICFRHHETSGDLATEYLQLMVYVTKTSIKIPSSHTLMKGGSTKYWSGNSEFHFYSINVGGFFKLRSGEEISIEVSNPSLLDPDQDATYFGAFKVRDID

T1: recombinant human RANKL (soluble, Gly136-Asp317, N-terminal 10 His, expressed in CHO cells) (human) (UniProt O14788)
T1 sequence: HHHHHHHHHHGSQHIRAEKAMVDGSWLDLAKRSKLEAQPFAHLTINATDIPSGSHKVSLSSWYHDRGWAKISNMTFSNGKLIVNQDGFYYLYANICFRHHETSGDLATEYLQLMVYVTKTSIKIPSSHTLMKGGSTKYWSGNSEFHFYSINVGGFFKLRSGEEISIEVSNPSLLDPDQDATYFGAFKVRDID

B1: pFL249-L10 scFv clone (scFv, not shown: small tags and cut ends)
scFv: QVQLQQSGAELASPGASVKLSCKASGYTFTTYWLQWVKQRPGQGLEWIGAIYPGPGNTKYTQKFKDKATLTADKSASTAYMQLNSLTSEDSAVYYCARRGSRRGIAYWGQGTLVTVSAGGGGSGGGGSGGGGSNIVLTQSPASLSVSLGQRATISCRASESVDSYGRSFMHWYQQRPGQAPRLLIYLASNLESGVPARFSGSGSRTDFTLTISSVEAEDEATYYCQQDNEDPYTFGGGTKLEIK
B2: pFL249-L10u scFv clone (scFv, not shown: small tags and cut ends)
scFv: QVQLQQSGAELASPGASVKLSCKASGYTFTTYWLQWVKQRPGQGLEWIGAIYPGPGNTKYTQKFKDKATLTADKSASTAYMQLNSLTSEDSAVYYCARRGSRRGIAYWGQGTLVTVSAGGGGSGGGGSGGGGSNIVLTQSPASLSVSLGQRATISCRASESVDSYGRSFMHWYQQRPGQAPKLLIYLASNLESGVPARFSGSGSRTDFTLTISSVEAEDEATYYCQQDNEDPYTFGGGTKLEIK
B3: pFL249-L37 scFv clone (scFv, not shown: small tags and cut ends)
scFv: QVQLQQSGAELASPGASVKLSCKASGYTFTTYWLQWVKQRPGQGLEWIGAIYPGPGNTKYTQKFKDKATLTADKSASTAYMQLNSLTSEDSAVYYCARRGSRRGIAYWGQGTLVTVSAGGGGSGGGGSGGGGSNIVLTQSPASLSVSLGQRATISCRASESVDSYGRSFMHWYQQKPGQAPKLLIYLASNLESGVPSRFSGSGSRTDFTLTISAVEAEDAATYYCQQDNEDPYTFGGGTKLEIK
B4: pFL249-L37u scFv clone (scFv, not shown: small tags and cut ends)
scFv: QVQLQQSGAELASPGASVKLSCKASGYTFTTYWLQWVKQRPGQGLEWIGAIYPGPGNTKYTQKFKDKATLTADKSASTAYMQLNSLTSEDSAVYYCARRGSRRGIAYWGQGTLVTVSAGGGGSGGGGSGGGGSNIVLTQSPASLSVSLGQRATISCRASESVDSYGRSFMHWYQQKPGQAPKLLIYLASNLESGVPSRFSGSGSRTDFTLTISRVEAEDAATYYCQQDNEDPYTFGGGTKLEIK

Target: T1, recombinant human RANKL (soluble, Gly136-Asp317, N-terminal 10 His, expressed in CHO cells) (human)
Assay: ELISA, hRANKL coated 1 µg/ml, scFv supernatant, anti-c-myc detection

| Binder | binding |
| --- | --- |
| B1 | binds |
| B2 | binds |
| B3 | binds |
| B4 | binds |
